Measured values published in EP0392976A1, “Monoclonal antibodies to tetracyclic compounds, processes for their production, and applications” (CIBA-GEIGY AG, priority 1989, dated 1990).
Where a name gives a salt, the structure may show the parent alone. Read-outs that look alike come from different tables or passages of the source. For at least one compound, name, drawing or mass did not settle the structure.

Assays:
Assay in all cases: inhibition enzyme immunoassay: inhibition of MAb binding to surface bound R-(-)-oxaprotiline-mucin conjugate
Set-up in all cases: species or system mouse
MAb 1219S59.11 = settings: for IC50: MAb 1219S59.11, read-out: IC₅₀
Method: (§1) The affinities of the monoclonal antibodies of the invention to R-(-)-oxaprotiline can for example be determined in an inhibition enzyme immunoassay according to Friguet et al. (J. Immunol. Methods 77, 305, 1985) wherein the monoclonal antibody to be tested is preincubated with R-(-)-oxaprotiline and, in a second step, exposed to a solid phase coated with an adsorbable conjugate of R-(-)-oxaprotiline, e.g. a protein conjugate. The fraction of the monoclonal antibody not engaged in immunocomplexes binds to the solid phase and is quantified by a secondary antibody-enzyme conjugate directed against the monoclonal antibody. The affinities are expressed as IC₅₀ (inhibition concentration) values, i.e. the concentration of free antigen causing a 50 % inhibition of antibody binding to the solid phase antigen.
(§2) This can be done, for example, in an inhibition enzyme immunoassay wherein the monoclonal antibodies of the invention are preincubated with any of the soluble compounds listed above and the incubation mixture is then tested in the enzyme immunoassay described above.
(§3) The conjugate solution (0.66 mg/ml) is diluted 1000-fold in coating buffer pH 9.8 (477 mg sodium carbonate, 897 mg sodium hydrogen carbonate, 60 mg sodium azide, 300 ml distilled water) and incubated in the wells of a microtitre plate for 2 days at 4°C. The wells are washed three times with PBS containing Tween 20 (Sigma, 0.1 %). Residual adsorption sites on the plate are saturated by incubation with 100 µl of PBS/Tween 20 for 1 h. 100 µl of a solution to be tested for the presence of antibodies to R-(-)-oxaprotiline are incubated in the wells for 1 h at room temperature. After washing three times with PBS/Tween 20, an alkaline phosphatase conjugated anti-mouse IgG antiserum (Sigma) is added in a 1000-fold dilution for 1 h at 37°C. The microtitre plate is washed five times with PBS/Tween 20, and the enzyme-conjugated bound antiserum developed with an alkaline phosphatase substrate consisting of disodium p-nitrophenylphosphate (1 mg/ml; Sigma) in diethanolamine buffer pH 9.8. The substrate gives a yellow coloration which is measured with a colorimeter (Titertek Multiskan) at a wave length of 405 nm after 60 min.
(§4) The assay is carried out as described in the following.
(§5) The capacity of free R-(-)-oxaprotiline and of a number of compounds which are structurally analogous to R-(-)-oxaprotiline to inhibit the binding of the monoclonal antibodies of the invention to the antigen is determined in an inhibition enzyme immunoassay essentially as described in example 3.2. The MAbs are preincubated with free R-(-)-oxaprotiline and with various structural analogues, respectively, instead of with the test compounds of example 3.2.

MAb 1228P63.1 = settings: for IC50: MAb 1228P63.1, read-out: IC₅₀
Method: as §1, §2, §3, §4, §5

MAb 1225S93.2 = settings: for IC50: MAb 1225S93.2, read-out: IC₅₀
Method: as §1, §2, §3, §4, §5

MAb 1219S78.6 = settings: for IC50: read-out: IC₅₀
Method: as §1, §2, §3, §4, §5

MAb 1226S31.3 = settings: for IC50: MAb 1226S31.3, read-out: IC₅₀
Method: as §1, §2, §3
The capacity of a number of therapeutic drugs some of which are used in combination with antidepressants and of biogenic amines to inhibit the binding of the monoclonal antibodies of the invention to the antigen is determined in a two-step inhibition enzyme immunoassay to establish the selectivity of the monoclonal antibodies to the tested compounds.
as §4, §5

SMILES	rel. affinity (MAb 1219S59.11)	IC50 (MAb 1219S59.11)	rel. affinity (MAb 1228P63.1)	IC50 (MAb 1228P63.1)	rel. affinity (MAb 1225S93.2)	IC50 (MAb 1225S93.2)	IC50 relative to reference compound (fold) (MAb 1219S78.6)	IC50 (MAb 1219S78.6; MAb 1219S78.6)	rel. affinity (MAb 1226S31.3)	IC50 (MAb 1226S31.3)	IC50 relative to reference compound (fold) (MAb 1219S78.6; MAb 1219S78.6, derived from IC50, compound 1 = 1)
CN(C)CC(O)CC12CCC(c3ccccc31)c1ccccc12 (stereo not drawn) [compound 8, 1-(3-dimethylamino-2-hydroxy-1-propyl)-dibenzo[b,e]bicyclo-[2.2.2]octadiene-methanesulfonate]	2.7	0.775 nM	1.5	1.15 nM	2.5	0.925 nM	3.0	0.9 nM	0.9	5.85 nM	
CNCC(CC12CCC(c3ccccc31)c1ccccc12)OC (stereo not drawn) [compound 9, 1-(2-methoxy-3-methylamino-propyl)-dibenzo[b,e]bicyclo-[2.2.2]octadiene-methanesulfonate]	175.9	51 nM	6.9	5.15 nM	6.4	2.35 nM		31 nM	1.8	12 nM	101.6
CNCC(C)(O)CC12CCC(c3ccccc31)c1ccccc12 (stereo not drawn) [compound 10, 1-(2-hydroxy-3-methyl-amino-2-methyl-propyl)-dibenzo[b,e]bicyclo-[2.2.2]octadiene-hydrochloride]	31.0	9 nM	6.5	4.9 nM	6.9	2.55 nM	4.8	1.45 nM	0.3	2.1 nM	
